The results in this text go back to patent publication US20260234270A1, “METHODS FOR TREATING CONDITIONS USING ANTI-NMDA RECEPTOR ANTIBODIES” (Lankenau Institute for Medical Research, priority 2022, published 2026).

These are yes or no findings as the source states them, for the method shown. Some binding calls cover weakened binding; strength is not graded here.

In test [1] the target is NMDAR GluN1 antigen in mouse retina (mouse) (UniProt P35438). As to the kind of experiment: immunofluorescence imaging of mouse retina.
The target is the same in test [2]. As to the kind of experiment: immunofluorescence of mouse retina, retinitis pigmentosa model.
The target is the same in test [3]. The experiment in a line: immunofluorescence of mouse retina, oxygen induced retinopathy model.

B1: 2G6 chimeric recombinant antibody (antibody, V domains shown)
VH: QVQLQESGGGVVQPGRSLRLSCAASGFSFNAFAMHWVRQAPGKGLEWVARISHYGSDDYYADSVKGRFTISRDNSQNTLFLQMNSLKAEDTGVYYCWRGFTLVRGVISRNPINRFSGMDVWGQGTTVTVSS
VL: SYELMQPPSVSVSPGQTARITCSGDALPKKYAYWYQQKSGQAPILVIYEDNKRPSGIPERFSGSSSGTMATLTISGAQVEDEADYFCYSTDSSGNHGVFGGGTKLTVLG
As to B1, the binding result in test [1], in test [2] and in test [3] was “binds” each time.

B2: 5F5 chimeric recombinant antibody (antibody, V domains shown)
VH: QVQLVESGGGVVRPGGSLRLSCAASGFTFSTYSLHWVRQAPGKGLEWVGVILYDGSKKYYADSVRGRFTISRDNSKSTLNLDMSSLRPDDTAVYYCARDPIAVAPRPSGMVPQGFDYWGQGTLVTVSS
VL: QSVVTQPPSASGTPGQRVTISCSGSSSNIGRNFVFWYRQLPGTAPKVLIYKNIQRPSGVPDRISGSRSGSSASLAISGLRSEDEADYYCASWDDSLSGVVFGGGTKLTVLG
On to B2, for which the binding result in test [1], in test [2] and in test [3] was “binds” in each case.

B3: 1D1 chimeric recombinant antibody (antibody, V domains shown, not shown: a dimerising Fc or GST; small tags and cut ends; large carriers)
VH: LVQLVESGGGVVQSGRSLRLSCAASGFAFHTFTIHWVRQAPGKGLDWVTAIYFDGTKKYYADSVKGRFTVSRDNSKNTVYLQMNGLRGEDTAVYYCARARYSYGLSFDYWGQGTPVTVSS
VL: QSVVTQPPSVSAAPGQKVTISCSASSSYLGSNYVSWYQQLPGTAPKLLIYDNNKRSSGISDRFSGSKSGTSATLDITGLQTGDEADYYCGAWDSSLSVVVFGGGTKLTVL
For the molecule B3, the binding entry in test [1] and in test [3] was “binds” throughout.
